This assay concerns the target TAP-Raf-1 (Protein A and Flag-tagged Raf-1) (UniProt P04049). Put plainly: pull-down; TAP-Raf-1 from serum-starved H19-7 cell lysate held on IgG sepharose beads, washed; incubated with RKIP (5 µg) for 30 min at 4°C in 10 mM HEPES pH 7.4, 3 mM MgCl2, 10 mM KCl, 150 mM NaCl, with increasing concentrations of locostatin or DHPE; bound RKIP detected by anti-RKIP immunoblot; both ….

Results are given in words; binding and its absence hold for the method and conditions named. Some entries that bind do so weakly or less than the wild type.

B1: Raf Kinase Inhibitory Protein (protein, UniProt P31044 1-187)
chain: MAADISQWAGPLSLQEVDEPPQHALRVDYGGVTVDELGKVLTPTQVMNRPSSISWDGLDPGKLYTLVLTDPDAPSRKDPKFREWHHFLVVNMKGNDISSGTVLSEYVGSGPPKDTGLHRYVWLVYEQEQPLNCDEPILSNKSGDNRGKFKVESFRKKYHLGAPVAGTCFQAEWDDSVPKLHDQLAGK
B1: the binding entry is given as “binds”.

These data come from paper PMC2696091.
